The supplement of paper PMC10849652
The list shows a part of the results.

Amino acid sequences for entries named in this document (tags omitted). A change or cut given only in a name is not applied to a line headed by its entry.
UniProt Q9H9Y2: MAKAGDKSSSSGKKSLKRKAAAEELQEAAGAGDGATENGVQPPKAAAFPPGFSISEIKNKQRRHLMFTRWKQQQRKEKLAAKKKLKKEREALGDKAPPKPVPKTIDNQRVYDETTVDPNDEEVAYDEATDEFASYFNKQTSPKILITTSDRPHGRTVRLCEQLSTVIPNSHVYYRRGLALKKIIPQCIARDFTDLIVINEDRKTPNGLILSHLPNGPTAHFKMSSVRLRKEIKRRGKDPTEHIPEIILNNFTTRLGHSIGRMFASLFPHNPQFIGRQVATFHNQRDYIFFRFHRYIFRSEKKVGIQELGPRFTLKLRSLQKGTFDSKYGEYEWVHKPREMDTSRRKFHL
UniProt Q8NCN4: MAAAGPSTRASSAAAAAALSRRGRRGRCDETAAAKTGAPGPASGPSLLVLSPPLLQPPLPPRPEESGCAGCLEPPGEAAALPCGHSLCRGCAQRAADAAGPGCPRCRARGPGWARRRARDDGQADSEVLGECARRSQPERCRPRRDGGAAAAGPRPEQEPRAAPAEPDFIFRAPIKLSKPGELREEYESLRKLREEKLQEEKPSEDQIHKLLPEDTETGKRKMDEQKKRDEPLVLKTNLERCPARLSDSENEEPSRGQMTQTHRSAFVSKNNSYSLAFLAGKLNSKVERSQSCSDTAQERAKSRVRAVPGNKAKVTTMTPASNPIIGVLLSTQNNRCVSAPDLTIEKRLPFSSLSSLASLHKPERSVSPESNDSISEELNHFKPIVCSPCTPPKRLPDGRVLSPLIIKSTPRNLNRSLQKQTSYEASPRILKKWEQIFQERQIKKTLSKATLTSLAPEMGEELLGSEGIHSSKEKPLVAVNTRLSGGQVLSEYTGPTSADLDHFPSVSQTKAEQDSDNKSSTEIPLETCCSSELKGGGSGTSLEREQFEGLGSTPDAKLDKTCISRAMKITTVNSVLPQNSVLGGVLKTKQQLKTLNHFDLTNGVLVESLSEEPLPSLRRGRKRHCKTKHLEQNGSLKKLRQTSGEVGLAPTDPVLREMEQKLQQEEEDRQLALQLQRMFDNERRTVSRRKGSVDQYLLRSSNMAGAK
UniProt Q96LT9: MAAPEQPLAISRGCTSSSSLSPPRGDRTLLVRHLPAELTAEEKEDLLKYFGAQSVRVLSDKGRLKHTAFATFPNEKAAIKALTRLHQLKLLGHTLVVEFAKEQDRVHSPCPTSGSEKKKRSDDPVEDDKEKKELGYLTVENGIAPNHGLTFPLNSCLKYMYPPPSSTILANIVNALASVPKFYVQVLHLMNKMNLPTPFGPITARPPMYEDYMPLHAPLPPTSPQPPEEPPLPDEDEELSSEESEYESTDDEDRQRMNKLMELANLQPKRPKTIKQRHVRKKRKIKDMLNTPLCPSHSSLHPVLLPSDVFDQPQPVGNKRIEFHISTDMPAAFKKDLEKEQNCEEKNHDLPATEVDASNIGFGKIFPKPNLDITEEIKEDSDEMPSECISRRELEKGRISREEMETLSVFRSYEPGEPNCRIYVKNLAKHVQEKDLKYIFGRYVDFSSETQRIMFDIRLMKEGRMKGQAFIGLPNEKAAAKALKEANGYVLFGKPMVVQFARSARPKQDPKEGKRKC
UniProt Q13129: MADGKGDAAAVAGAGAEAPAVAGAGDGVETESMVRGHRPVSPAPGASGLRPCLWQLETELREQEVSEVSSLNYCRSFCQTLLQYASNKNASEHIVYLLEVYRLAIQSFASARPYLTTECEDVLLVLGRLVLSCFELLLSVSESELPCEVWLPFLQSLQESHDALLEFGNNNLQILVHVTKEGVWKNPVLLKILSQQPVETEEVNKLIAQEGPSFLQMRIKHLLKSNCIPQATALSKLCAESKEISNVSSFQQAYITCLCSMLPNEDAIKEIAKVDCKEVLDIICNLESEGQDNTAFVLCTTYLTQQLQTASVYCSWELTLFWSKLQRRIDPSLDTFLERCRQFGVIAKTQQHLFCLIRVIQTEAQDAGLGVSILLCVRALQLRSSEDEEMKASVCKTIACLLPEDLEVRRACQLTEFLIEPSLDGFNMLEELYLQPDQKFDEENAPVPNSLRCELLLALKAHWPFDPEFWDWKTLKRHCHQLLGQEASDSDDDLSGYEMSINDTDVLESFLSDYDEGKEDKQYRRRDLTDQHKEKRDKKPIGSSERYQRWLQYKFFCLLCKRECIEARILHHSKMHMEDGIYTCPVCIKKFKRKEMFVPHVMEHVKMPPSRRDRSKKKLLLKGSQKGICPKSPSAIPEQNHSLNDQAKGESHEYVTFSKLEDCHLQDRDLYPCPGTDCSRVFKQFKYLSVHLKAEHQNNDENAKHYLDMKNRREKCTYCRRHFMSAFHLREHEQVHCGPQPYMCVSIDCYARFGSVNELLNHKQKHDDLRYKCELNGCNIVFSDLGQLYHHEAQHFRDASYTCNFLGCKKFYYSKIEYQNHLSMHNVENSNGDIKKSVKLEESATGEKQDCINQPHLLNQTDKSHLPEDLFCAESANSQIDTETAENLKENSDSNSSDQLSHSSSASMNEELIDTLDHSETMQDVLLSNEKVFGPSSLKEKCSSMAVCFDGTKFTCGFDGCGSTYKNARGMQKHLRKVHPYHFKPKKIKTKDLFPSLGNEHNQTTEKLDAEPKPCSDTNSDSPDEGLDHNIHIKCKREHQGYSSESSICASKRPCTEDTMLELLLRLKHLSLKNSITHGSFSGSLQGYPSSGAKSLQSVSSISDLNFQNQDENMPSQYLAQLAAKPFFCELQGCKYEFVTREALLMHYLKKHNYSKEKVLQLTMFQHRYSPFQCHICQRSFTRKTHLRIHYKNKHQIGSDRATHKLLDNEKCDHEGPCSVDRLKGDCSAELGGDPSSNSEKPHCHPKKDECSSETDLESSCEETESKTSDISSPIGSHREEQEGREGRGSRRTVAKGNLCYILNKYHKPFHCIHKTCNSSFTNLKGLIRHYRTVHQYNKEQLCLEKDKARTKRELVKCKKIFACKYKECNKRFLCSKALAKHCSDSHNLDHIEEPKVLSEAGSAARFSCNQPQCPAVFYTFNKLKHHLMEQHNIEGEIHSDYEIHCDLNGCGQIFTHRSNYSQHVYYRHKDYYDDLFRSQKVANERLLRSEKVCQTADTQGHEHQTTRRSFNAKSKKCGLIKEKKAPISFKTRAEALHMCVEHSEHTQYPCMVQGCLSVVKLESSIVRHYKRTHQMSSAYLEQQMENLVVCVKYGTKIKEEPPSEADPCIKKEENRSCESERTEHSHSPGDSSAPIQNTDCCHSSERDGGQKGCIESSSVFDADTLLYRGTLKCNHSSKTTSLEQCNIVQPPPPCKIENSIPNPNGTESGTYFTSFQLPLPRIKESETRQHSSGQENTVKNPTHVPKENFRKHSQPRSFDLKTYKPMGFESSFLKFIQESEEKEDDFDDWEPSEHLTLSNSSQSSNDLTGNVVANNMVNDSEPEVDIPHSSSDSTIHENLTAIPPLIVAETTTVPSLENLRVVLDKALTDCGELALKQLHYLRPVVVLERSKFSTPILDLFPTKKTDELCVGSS
UniProt Q9Y225: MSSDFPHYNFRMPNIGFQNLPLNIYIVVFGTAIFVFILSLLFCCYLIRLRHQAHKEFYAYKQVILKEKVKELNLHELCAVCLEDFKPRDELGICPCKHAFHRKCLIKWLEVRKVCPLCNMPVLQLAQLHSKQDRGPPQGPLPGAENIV
UniProt Q86UA6: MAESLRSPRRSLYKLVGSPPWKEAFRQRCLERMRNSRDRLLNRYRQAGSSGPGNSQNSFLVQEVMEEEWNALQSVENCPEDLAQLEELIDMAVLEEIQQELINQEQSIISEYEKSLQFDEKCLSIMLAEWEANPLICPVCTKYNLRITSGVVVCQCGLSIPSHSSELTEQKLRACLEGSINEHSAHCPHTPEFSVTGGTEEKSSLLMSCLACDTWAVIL
UniProt Q9H920: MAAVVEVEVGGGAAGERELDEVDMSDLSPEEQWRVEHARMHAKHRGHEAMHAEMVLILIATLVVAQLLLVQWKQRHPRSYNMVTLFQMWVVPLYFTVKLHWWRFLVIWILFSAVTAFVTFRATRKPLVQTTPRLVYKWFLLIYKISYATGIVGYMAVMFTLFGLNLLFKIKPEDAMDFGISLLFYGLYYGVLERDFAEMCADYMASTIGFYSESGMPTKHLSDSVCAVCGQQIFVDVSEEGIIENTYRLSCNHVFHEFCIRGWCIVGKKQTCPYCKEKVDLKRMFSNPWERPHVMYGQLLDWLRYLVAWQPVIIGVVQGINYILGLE
UniProt Q5M7Z0: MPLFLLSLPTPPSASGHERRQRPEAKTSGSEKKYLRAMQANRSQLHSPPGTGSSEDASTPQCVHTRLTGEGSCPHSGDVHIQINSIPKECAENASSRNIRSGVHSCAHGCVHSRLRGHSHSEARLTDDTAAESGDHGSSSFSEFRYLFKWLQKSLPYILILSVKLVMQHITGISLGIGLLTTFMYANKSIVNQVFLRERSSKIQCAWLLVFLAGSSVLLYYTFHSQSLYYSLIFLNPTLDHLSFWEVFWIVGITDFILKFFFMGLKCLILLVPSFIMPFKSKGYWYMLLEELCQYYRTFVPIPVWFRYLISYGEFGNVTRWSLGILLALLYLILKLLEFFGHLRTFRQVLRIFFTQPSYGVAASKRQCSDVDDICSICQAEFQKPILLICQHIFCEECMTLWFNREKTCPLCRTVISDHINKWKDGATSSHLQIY
UniProt Q9Y4L5, whole entry, looked up: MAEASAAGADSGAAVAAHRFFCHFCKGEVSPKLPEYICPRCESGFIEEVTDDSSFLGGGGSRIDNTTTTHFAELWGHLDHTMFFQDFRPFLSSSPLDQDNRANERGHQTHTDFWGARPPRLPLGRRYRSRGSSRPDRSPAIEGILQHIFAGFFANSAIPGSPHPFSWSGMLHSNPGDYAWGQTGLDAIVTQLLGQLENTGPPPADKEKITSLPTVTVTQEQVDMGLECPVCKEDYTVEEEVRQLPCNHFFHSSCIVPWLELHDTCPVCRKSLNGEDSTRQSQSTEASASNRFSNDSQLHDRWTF
UniProt Q13464: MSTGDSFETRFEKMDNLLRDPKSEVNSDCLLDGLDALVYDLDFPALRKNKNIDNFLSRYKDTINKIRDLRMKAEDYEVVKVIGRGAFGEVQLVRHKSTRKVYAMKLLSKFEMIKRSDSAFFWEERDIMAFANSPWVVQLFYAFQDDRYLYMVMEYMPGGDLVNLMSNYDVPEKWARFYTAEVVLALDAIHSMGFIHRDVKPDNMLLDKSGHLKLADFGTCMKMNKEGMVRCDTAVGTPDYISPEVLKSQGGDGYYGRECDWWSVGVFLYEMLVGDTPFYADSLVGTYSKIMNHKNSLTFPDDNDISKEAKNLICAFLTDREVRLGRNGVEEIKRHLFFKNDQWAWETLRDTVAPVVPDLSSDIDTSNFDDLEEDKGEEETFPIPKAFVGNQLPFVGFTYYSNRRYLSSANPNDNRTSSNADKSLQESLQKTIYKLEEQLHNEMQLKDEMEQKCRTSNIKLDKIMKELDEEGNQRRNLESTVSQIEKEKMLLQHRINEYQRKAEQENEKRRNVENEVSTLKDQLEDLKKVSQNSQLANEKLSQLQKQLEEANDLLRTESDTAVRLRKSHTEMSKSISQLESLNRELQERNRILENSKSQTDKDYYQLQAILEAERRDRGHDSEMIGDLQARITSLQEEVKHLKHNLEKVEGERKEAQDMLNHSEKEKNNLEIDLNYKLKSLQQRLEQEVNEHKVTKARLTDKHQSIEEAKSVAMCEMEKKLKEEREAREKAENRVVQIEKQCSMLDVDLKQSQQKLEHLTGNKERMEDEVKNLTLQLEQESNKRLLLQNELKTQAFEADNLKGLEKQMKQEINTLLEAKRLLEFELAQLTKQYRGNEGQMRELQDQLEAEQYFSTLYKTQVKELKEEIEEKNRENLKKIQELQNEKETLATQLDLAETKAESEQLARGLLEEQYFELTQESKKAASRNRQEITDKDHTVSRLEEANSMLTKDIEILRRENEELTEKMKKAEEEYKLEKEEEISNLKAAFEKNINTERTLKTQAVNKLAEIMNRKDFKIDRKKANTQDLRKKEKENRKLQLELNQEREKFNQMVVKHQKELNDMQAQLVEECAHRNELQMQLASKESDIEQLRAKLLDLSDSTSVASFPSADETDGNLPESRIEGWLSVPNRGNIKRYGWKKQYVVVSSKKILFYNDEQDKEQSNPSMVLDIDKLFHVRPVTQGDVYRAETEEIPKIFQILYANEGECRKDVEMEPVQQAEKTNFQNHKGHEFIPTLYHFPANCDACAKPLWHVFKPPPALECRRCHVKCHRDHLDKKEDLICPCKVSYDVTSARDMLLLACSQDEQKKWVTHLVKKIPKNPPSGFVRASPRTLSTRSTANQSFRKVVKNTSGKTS
UniProt P49247: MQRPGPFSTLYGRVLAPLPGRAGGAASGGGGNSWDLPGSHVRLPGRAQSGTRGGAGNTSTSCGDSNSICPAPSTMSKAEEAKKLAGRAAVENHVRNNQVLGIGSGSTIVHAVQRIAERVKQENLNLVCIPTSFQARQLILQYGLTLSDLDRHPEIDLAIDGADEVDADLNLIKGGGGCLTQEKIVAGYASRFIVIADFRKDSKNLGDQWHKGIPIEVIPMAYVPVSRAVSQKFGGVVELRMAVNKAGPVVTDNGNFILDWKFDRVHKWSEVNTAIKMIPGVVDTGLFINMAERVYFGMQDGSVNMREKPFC

Experiments:
Experiment in all cases: log2 fold change, soluble protein after heating vs DMSO (PISA); higher = thermal stabilisation; K562 lysate, 10 uM; active = over 0.2 and 3.5 SD of the protein, either way, in both replicates (recomputed)
vorinostat = compound: O=C(CCCCCCC(=O)Nc1ccccc1)NO [vorinostat]
Summary of the method: (§1)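 The values are log-two fold changes in thermal stability compared with solvent controls and come from duplicates. They were obtained by TMTpro 16plex LC-MS/MS, with channel sums equalised, on the supernatant after 21,000xg for 90 min. That supernatant came from crude K562 extract at 1 mg/mL protein treated with 10 μM compound for 30 min, heated for 3 min across 48°C-58°C, pooled and brought to 0.5% NP-40 at 4°C.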

silmitasertib = compound: O=C(O)c1ccc2c(c1)nc(Nc1cccc(Cl)c1)c1ccncc12 [silmitasertib]
Summary of the method: as §1

[1] = compound: O=C1NC(=O)C(c2cnc3ccccn23)=C1c1cn2c3c(cc(F)cc13)CN(C(=O)N1CCCCC1)CC2
Summary of the method: as §1

entospletinib = compound: c1cn2cc(-c3ccc4cn[nH]c4c3)nc(Nc3ccc(N4CCOCC4)cc3)c2n1 [entospletinib]
Summary of the method: as §1

[2] = compound: NCC(=O)Nc1ccc(-n2nc(C(F)(F)F)cc2-c2ccc3c(ccc4ccccc43)c2)cc1
Summary of the method: as §1

Target	log2 fold change (vorinostat)	log2 fold change (silmitasertib)	log2 fold change [1]	log2 fold change (entospletinib)	log2 fold change [2]
RPL32 (UniProt D3YTI8)	inactive: 0.187	inactive: -0.06			
RNF10 isoform 2 (UniProt Q8N5U6)	inactive: 0.028	inactive: 0.07	inactive: -0.039	inactive: 0.038	
RHOBTB3 (UniProt O94955)	inactive: -0.249	inactive: 0.42		inactive: -0.044	
RPF1 (UniProt Q9H9Y2)			inactive: 0.069		
RPL22L1 (UniProt Q6P5R6)				inactive: 0.371	
RNF169 (UniProt Q8NCN4)	inactive: -0.227	inactive: 0.108	inactive: 0.015		
RNPC3 (UniProt Q96LT9)	active: -0.488	inactive: 0.145	inactive: 0.036		
RPGR (UniProt Q92834)			inactive: -0.028		
RLF (UniProt Q13129)			inactive: 0.047		
RNF24 isoform 2 (UniProt Q9Y225)	active: 0.918	inactive: -0.117	inactive: 0.016		
RILPL2 (UniProt Q969X0)	inactive: -0.075	inactive: -0.073	inactive: 0.037		
RLIM (UniProt Q9NVW2)			inactive: 0.289		
ROS1 (UniProt P08922)			inactive: -0.009	inactive: 0.073	inactive: 0.025
RPAIN isoform 8 (UniProt Q86UA6)				inactive: -0.001	inactive: -0.063
RNF17 (UniProt Q9BXT8)	inactive: -0.016	inactive: -0.021	inactive: -0.106	inactive: 0.107	
RNF130 (UniProt Q86XS8)			inactive: -0.174		inactive: 0.084
RINL (UniProt Q6ZS11)	inactive: -0.236	inactive: 0.031		inactive: -0.372	
RNF138 (UniProt Q8WVD3)			inactive: -0.051	inactive: 0.008	inactive: 0.045

Target	log2 fold change (vorinostat)	log2 fold change (silmitasertib)	log2 fold change [1]	log2 fold change (entospletinib)	log2 fold change [2]
RNF121 (UniProt Q9H920)	inactive: 0.081	inactive: -0.065	inactive: 0.01		
RHOA (UniProt P61586)	inactive: 0.064	inactive: -0.009	inactive: 0	inactive: 0.022	inactive: 0.03
RNFT1 (UniProt Q5M7Z0)	inactive: 0.081	inactive: 0.099		inactive: -0.016	
RNF13 (UniProt O43567)	inactive: 0.036	inactive: -0.029			
ROBO2 isoform 3 (UniProt Q9HCK4)	inactive: 0.136	inactive: -0.019	inactive: -0.042		
RNF115 (UniProt Q9Y4L5)			inactive: 0.056		inactive: 0.013
RNF5 (UniProt Q99942)	inactive: 0.021	inactive: 0.076	inactive: 0.108	inactive: -0.022	
RNF41 (UniProt Q9H4P4)	inactive: -0.518	inactive: 0.114	inactive: -0.079		
RPAP1 (UniProt Q9BWH6)	active: -0.232	inactive: 0	inactive: 0.015	inactive: -0.025	inactive: 0.006
RNF4 (UniProt P78317)			inactive: 0.175	inactive: -0.079	inactive: -0.063
RNF111 isoform 3 (UniProt Q6ZNA4)			inactive: -0.028		
ROCK1 (UniProt Q13464)	active: -0.211		inactive: -0.017	inactive: -0.016	inactive: 0
RPL15, A0A2R8Y738	inactive: 0.096	inactive: 0.379			
RNF185 (UniProt Q96GF1)	inactive: -0.138	inactive: 0.06			
RPIA (UniProt P49247)	inactive: 0.121	inactive: -0.017	inactive: 0.007	inactive: -0.012	inactive: 0.045
RPL10, A0A087WV22	inactive: 0.347	inactive: 0.183	inactive: 0.201		
ROGDI (UniProt Q9GZN7)	inactive: -0.043	inactive: 0.12	inactive: 0.046		

Two entries from above, as labelled records:
RHOBTB3 (UniProt O94955)
  log2 fold change (vorinostat): inactive: -0.249
  log2 fold change (silmitasertib): inactive: 0.42
  log2 fold change (entospletinib): inactive: -0.044
RPAIN isoform 8 (UniProt Q86UA6)
  log2 fold change (entospletinib): inactive: -0.001
  log2 fold change [2]: inactive: -0.063
